# Some compounds share one wording; it may come from a single statement.
# Key:
# [1] = Regeneration (carbon dioxide release) on heated molecular sieve 4A column; conditions: column 60° C. to 70° C., inert gas 50 ml/min
# Procedure: (§1) When a compound (a-1) of General Formula (a) wherein R^1 and R^3 are 1-ethylpropyl groups and R^2 is C3 linear alkyl and water were blended at a mass ratio of 50:50, two phases of an organic phase (amine compound phase) as an upper phase and an aqueous phase as a lower phase were formed. […] The temperature in the column was changed in a range of 60° C. to 70° C., and an inert gas was caused to flow at 50 ml/min. […] Here, the amount of carbon dioxide saturated and absorbed is a value obtained by measuring the amount of inorganic carbon in the acid gas absorbent with an infrared gas concentration measuring apparatus. The amount of this compound dissolved was 18,000 mg/L at 25° C. and under atmospheric pressure. The amount of the compound dissolved was determined by sampling the lower phase of the two phases fractionated, measuring the total organic carbon concentration with a total organic carbon meter TOC-L (trade name) manufactured by Shimadzu Corporation, and converting it into the amount of amine dissolved from the chemical formula of the compound (a-1).
# [2] = Carbon dioxide absorption by bubbling CO2:N2=1:9 gas into amine/water mixture; conditions: 20 g of mixture with water 50:50; CO2:N2=1:9 bubbled at 0.5 L/min; 25° C., atmospheric pressure
# Procedure: Hereinafter, Examples of the embodiment will be described. In the following Examples, conditions before heating the acid gas absorbent were 25° C. and atmospheric pressure.
# as §1
structure (smiles),measurement,setting,value
CCC(CC)NCCCN(C)CCCNC(CC)CC [compound (b-1)],regeneration of mixture passed through column,[1],released carbon dioxide and was regenerated
same,carbon dioxide absorbed for 10 minutes from the start,[2],7 nL/kg
same,carbon dioxide absorbed for 100 minutes from the start,[2],38 nL/kg
"CC(C)N(C)C(C)C [diisopropylmethylamine, reference compound]",carbon dioxide absorbed for 10 minutes from the start,[2],3.6 nL/kg
same,carbon dioxide absorbed for 100 minutes from the start,[2],20.3 nL/kg
CC(C)CC(C)NCCCNCCCNC(C)CC(C)C (centres unmarked) [compound (b-3)],regeneration of mixture passed through column,[1],released carbon dioxide and was regenerated
same,carbon dioxide absorbed for 10 minutes from the start,[2],11 nL/kg
same,carbon dioxide absorbed for 100 minutes from the start,[2],56 nL/kg
CCC(CC)NCCCNC(CC)CC [compound (a-1)],regeneration of mixture passed through column,[1],released carbon dioxide and was regenerated
same,carbon dioxide absorbed for 10 minutes from the start,[2],12 nL/kg
same,carbon dioxide absorbed for 100 minutes from the start,[2],48 nL/kg
CC(C)CC(C)NCCCN(C)CCCNC(C)CC(C)C (centres unmarked) [compound (b-2)],regeneration of mixture passed through column,[1],released carbon dioxide and was regenerated
same,carbon dioxide absorbed for 10 minutes from the start,[2],7 nL/kg
same,carbon dioxide absorbed for 100 minutes from the start,[2],36 nL/kg
